Reference: patent US4183939A, “Glaucine analgesic method” (priority 1978, dated 1980)

Key:
[1] = format: in vivo; conditions: intraperitoneal injection 45-60 minutes before testing
mice [2] = conditions: mouse, in vivo
Protocol: Physical dependency liability was evaluated in mice by the procedure of Saelens, et al., Aoch. Int. Pharmacodynam, 190:213-218, 1971. In this procedure, mice are administered increasing doses of a test compound at intervals on two consectuive days. The last dosage on the second day is followed by intraperitoneal injection of the morphine antagonist, naloxone, at a dosage of 100 mg/kg, and the mice are observed for characteristic jumping behavior indicative of opiate withdrawals or morphine antaganism. […].

mice [3] = format: in vivo; conditions: repeated evaluation with morphine sulfate for comparison; 30 min
Protocol: The test compounds were administered by subcutaneous injection 30 minutes before testing.

CN1CC[C@]23c4c5ccc(O)c4O[C@H]2[C@@H](O)C=C[C@H]3[C@H]1C5.O=S(=O)(O)O [morphine sulfate]
ED50 (tail pinch) [1]: 1.2 mg/kg | mice jumping after naloxone (mice [2]): 5 of 9 | ED50 (hot plate), repeated evaluation (mice [3]): 6.3 mg/kg
